Experimental data: the supplement of paper PMC11006884
The list shows a part of the results, in another mix than the full data.

Amino acid sequences for entries named in this document (tags omitted). A change or cut given only in a name is not applied to a line headed by its entry.
UniProt P41252: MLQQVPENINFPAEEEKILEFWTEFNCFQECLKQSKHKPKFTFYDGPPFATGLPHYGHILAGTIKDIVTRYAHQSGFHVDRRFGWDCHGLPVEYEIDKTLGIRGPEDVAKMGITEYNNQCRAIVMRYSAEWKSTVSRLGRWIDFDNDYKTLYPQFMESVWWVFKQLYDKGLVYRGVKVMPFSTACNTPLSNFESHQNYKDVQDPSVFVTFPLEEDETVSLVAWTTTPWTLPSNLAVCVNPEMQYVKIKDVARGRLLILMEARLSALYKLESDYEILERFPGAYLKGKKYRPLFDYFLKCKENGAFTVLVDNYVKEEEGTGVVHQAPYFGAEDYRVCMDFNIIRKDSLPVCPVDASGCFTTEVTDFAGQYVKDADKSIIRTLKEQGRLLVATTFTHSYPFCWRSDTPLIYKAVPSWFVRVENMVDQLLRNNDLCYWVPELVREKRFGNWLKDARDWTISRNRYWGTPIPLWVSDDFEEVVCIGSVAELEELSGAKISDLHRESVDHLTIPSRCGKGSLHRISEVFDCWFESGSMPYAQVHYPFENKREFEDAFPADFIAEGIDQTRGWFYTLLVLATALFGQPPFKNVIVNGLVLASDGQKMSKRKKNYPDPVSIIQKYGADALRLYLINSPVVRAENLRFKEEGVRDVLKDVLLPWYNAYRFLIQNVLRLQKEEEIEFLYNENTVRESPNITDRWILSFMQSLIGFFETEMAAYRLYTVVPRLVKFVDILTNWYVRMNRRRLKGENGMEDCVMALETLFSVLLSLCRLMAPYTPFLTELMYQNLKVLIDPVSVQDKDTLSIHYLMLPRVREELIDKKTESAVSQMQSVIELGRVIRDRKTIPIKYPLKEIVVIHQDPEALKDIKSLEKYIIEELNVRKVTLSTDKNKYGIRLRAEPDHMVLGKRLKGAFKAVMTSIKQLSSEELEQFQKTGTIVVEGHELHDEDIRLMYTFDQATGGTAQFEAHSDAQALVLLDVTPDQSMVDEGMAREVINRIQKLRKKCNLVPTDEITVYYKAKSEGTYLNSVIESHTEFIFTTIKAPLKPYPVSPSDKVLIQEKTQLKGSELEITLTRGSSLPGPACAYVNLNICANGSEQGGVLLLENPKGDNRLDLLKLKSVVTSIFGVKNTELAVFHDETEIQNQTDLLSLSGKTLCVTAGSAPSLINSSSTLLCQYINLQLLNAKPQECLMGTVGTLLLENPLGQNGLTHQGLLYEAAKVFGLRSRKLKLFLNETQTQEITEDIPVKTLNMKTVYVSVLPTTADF
UniProt P30825: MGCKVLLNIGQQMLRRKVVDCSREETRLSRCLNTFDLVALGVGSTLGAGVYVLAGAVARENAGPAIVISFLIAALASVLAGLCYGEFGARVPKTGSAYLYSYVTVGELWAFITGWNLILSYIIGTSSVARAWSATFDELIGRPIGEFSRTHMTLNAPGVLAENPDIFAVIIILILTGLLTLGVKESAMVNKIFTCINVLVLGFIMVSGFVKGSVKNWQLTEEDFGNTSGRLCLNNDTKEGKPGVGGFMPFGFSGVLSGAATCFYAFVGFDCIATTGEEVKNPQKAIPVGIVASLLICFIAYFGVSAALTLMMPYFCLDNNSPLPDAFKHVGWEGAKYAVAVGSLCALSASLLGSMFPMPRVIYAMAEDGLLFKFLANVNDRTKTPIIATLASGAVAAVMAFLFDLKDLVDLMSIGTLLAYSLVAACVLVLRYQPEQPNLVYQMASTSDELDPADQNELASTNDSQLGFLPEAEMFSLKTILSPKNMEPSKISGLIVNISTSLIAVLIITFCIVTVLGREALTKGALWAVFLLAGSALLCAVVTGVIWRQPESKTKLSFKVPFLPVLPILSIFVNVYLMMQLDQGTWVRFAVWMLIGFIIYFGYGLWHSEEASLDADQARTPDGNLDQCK
UniProt P42765: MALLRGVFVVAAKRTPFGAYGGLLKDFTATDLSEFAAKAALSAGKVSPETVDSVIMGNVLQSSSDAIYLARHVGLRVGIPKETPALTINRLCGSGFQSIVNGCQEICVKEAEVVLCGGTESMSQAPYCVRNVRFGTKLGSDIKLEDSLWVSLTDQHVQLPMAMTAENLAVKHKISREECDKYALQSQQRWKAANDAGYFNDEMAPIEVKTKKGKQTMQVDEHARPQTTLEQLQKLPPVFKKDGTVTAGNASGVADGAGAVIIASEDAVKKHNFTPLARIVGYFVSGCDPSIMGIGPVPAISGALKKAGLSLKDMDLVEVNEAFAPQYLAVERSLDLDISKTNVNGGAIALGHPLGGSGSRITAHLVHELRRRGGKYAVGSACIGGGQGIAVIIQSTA
UniProt P34949: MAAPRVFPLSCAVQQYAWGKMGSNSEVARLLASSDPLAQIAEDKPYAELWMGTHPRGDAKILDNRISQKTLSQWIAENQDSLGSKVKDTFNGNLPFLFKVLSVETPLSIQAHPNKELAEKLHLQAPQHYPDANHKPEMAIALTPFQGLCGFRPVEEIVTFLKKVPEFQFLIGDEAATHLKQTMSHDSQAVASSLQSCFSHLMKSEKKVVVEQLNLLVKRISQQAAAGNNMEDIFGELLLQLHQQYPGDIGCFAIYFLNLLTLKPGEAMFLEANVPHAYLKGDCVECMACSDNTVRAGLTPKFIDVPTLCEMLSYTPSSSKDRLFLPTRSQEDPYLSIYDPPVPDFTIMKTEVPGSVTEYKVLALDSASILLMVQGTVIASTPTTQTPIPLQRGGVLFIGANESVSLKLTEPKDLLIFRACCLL
UniProt P35658: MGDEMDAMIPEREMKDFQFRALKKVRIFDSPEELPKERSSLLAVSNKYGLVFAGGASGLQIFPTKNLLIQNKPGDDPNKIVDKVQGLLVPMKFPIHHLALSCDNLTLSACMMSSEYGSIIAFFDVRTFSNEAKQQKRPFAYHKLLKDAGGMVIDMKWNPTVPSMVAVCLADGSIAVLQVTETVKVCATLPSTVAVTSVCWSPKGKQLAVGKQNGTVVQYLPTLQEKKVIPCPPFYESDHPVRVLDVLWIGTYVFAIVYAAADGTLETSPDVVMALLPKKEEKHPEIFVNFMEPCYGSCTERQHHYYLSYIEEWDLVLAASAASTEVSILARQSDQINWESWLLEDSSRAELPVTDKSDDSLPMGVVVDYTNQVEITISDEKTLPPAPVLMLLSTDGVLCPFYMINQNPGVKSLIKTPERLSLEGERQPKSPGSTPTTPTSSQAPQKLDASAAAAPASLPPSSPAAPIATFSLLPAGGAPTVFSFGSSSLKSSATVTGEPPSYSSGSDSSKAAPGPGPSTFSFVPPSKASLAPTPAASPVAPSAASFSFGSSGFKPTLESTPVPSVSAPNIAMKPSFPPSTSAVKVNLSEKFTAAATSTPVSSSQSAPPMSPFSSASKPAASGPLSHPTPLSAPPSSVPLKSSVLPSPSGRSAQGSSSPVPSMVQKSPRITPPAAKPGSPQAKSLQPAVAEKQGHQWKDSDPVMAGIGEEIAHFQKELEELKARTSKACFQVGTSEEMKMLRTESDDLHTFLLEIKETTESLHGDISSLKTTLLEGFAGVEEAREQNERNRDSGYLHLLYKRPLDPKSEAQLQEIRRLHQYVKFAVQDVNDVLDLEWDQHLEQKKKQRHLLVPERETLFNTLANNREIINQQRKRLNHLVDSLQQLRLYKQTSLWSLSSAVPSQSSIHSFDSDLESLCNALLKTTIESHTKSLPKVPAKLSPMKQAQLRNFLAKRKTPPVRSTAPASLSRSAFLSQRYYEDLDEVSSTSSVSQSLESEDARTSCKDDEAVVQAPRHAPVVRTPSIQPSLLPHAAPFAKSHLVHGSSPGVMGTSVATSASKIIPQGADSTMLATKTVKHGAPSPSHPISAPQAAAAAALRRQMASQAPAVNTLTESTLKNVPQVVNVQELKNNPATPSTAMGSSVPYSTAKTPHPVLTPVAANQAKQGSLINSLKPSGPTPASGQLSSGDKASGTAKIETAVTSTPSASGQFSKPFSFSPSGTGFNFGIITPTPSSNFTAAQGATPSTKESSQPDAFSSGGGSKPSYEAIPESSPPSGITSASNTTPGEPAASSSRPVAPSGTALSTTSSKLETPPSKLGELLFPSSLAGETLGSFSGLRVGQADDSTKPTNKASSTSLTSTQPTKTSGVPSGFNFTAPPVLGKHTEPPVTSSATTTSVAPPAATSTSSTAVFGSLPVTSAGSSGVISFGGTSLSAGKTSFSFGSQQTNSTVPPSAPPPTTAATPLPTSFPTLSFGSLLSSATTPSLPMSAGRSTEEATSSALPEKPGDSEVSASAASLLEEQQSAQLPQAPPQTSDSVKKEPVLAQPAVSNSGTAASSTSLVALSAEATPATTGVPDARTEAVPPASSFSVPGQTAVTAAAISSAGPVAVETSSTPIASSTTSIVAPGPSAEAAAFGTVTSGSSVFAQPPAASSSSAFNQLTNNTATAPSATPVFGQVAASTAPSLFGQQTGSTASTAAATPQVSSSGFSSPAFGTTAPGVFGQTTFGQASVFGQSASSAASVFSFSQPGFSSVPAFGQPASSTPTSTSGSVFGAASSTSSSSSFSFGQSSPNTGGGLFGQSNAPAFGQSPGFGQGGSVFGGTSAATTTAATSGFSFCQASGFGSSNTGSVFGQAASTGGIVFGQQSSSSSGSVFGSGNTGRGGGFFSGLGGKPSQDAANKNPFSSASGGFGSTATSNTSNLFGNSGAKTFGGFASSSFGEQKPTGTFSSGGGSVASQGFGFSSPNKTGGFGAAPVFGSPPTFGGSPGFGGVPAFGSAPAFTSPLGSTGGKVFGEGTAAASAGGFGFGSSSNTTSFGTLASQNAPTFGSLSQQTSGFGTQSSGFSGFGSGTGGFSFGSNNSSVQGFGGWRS
UniProt P34932: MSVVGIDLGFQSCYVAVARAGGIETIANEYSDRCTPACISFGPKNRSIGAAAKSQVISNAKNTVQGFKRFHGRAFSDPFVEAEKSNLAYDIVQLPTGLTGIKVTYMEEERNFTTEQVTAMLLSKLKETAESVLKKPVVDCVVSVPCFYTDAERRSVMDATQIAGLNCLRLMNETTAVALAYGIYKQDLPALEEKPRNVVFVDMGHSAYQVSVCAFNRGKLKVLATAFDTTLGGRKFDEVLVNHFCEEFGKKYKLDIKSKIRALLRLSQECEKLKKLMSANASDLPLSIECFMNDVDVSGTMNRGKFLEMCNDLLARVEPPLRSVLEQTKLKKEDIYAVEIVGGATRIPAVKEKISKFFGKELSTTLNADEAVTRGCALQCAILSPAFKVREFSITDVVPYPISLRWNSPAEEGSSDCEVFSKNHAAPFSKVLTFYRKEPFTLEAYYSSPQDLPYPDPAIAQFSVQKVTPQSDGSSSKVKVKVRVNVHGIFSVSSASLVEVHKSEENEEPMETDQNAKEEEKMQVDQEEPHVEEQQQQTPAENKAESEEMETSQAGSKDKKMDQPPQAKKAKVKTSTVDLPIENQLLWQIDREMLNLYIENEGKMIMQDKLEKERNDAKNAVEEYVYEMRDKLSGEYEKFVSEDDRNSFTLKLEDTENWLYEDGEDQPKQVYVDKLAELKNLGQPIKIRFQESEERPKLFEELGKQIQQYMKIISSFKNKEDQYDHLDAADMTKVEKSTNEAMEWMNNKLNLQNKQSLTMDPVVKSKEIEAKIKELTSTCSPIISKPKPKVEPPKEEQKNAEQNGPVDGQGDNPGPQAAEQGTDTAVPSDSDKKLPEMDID
UniProt P39748, whole entry, looked up: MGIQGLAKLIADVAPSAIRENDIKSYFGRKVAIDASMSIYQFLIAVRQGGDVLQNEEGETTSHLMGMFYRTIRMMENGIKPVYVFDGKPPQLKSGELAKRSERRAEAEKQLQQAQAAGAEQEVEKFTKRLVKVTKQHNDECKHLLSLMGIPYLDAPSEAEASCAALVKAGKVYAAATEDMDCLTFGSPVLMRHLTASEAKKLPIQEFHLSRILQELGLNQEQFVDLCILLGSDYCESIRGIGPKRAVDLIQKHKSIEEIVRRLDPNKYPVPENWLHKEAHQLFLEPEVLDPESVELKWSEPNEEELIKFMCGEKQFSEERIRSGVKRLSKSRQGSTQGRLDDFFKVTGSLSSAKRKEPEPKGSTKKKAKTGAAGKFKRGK
UniProt P38432, whole entry, looked up: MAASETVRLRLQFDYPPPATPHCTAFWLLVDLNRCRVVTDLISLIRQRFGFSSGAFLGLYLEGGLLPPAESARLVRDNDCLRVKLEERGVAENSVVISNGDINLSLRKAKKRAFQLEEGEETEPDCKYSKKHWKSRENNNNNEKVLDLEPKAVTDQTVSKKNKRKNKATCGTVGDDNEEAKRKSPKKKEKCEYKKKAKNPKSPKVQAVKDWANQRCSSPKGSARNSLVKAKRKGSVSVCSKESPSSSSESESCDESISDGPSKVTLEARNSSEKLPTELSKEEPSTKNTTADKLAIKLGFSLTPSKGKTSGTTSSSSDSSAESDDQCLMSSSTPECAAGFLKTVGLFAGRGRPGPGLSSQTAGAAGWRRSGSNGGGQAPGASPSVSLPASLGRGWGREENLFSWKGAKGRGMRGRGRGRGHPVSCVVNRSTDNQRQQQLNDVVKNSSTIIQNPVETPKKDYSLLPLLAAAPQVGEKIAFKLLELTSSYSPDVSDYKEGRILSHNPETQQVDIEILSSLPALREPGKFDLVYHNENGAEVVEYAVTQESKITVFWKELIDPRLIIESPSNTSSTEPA

Compound: COC(=O)C#Cc1ccccc1 [methyl 3-phenylpropiolate]
Assay: log2 ratio of iodoacetamide-alkyne labeling of the cysteine site, DMSO over compound (competition); higher = stronger covalent engagement of the cysteine by the compound, active = 1 or more
Settings: 500 µM; treatment time 1 h; system: HEK293T cell lysate
Method in brief: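 HEK293T lysate at 2 mg/mL was treated with vehicle or electrophile (500 µM) for 1 h at ambient temperature, then labelled with iodoacetamide alkyne (1 h), clicked to sCIP-TMT reagents, pooled, digested with trypsin overnight at 37 °C, enriched on streptavidin and eluted with acid. Peptides were analysed by Orbitrap Eclipse LC-MS/MS with FAIMS and quantified in FragPipe, using duplicate channels and three replicates, with cysteines quantified in only one replicate excluded. The log2 competition ratio for each cysteine is the mean control-channel reporter intensity divided by the mean compound-channel reporter intensity.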

**Q.** How did the “log2 ratio of iodoacetamide-alkyne labeling” value (shortened to “log2 ratio”) turn out when EIF1 C94 (UniProt P41567) was run?
**A.** Its value is inactive: 0.115.

**Q.** Which “log2 ratio” value does the source give for HSPA9 C366 (UniProt P38646) here?
**A.** Its value is inactive: 0.191.

**Q.** For IARS C1001 (UniProt P41252), which “log2 ratio” value is on record?
**A.** Its value is inactive: 0.597.

**Q.** Which “log2 ratio” value does the source give for SLC19A1 C580 (UniProt P41440) here?
**A.** Its value is inactive: 0.634.

**Q.** How did the “log2 ratio” value turn out when UniProt P31270_C93 was run?
**A.** The value was inactive: 0.471.

**Q.** Which “log2 ratio” value does the source give for TMPO C330 (UniProt P42166) here?
**A.** Its value is inactive: 0.471.

**Q.** How did the “log2 ratio” value turn out when SLC7A1 C628 (UniProt P30825) was run?
**A.** The value was inactive: 0.105.

**Q.** TTK C322 (UniProt P33981) was tested. Which “log2 ratio” value did it give?
**A.** Its value is active: 1.29.

**Q.** IARS C433 (UniProt P41252) was tested. Which “log2 ratio” value did it give?
**A.** The value was inactive: -0.0103.

**Q.** For TMPO C561 (UniProt P42166), which “log2 ratio” value is on record?
**A.** The value was inactive: 0.208.

**Q.** How did the “log2 ratio” value turn out when STIP1 C461 (UniProt P31948) was run?
**A.** Its value is inactive: -0.0506.

**Q.** With ACAA2 C116 (UniProt P42765) as the target, how does the “log2 ratio” value read?
**A.** The value was active: 1.22.

**Q.** Which “log2 ratio” value does the source give for MPI C11 (UniProt P34949) here?
**A.** The value was inactive: 0.0754.

**Q.** Which “log2 ratio” value does the source give for NUP214 C1003 (UniProt P35658) here?
**A.** The value was inactive: 0.236.

**Q.** For ATIC C101 (UniProt P31939), which “log2 ratio” value is on record?
**A.** Its value is inactive: -0.104.

**Q.** UniProt P42356_C1774 was tested. Which “log2 ratio” value did it give?
**A.** Its value is inactive: 0.189.

**Q.** Which “log2 ratio” value does the source give for ARL3 C118 (UniProt P36405) here?
**A.** The value was inactive: 0.684.

**Q.** Which “log2 ratio” value does the source give for CSTF2 C62 (UniProt P33240) here?
**A.** The value was inactive: -0.255.

**Q.** SHMT2 C91 (UniProt P34897) was tested. Which “log2 ratio” value did it give?
**A.** The value was inactive: 0.316.

**Q.** Which “log2 ratio” value does the source give for HSPA4 C290 (UniProt P34932) here?
**A.** The value was inactive: 0.0573.

**Q.** Which “log2 ratio” value does the source give for CTNNA1 C324 (UniProt P35221) here?
**A.** The value was inactive: 0.0149.

**Q.** Which “log2 ratio” value does the source give for LONP1 C682 (UniProt P36776) here?
**A.** Its value is inactive: 0.203.

**Q.** With NCAPD3 C1456 (UniProt P42695) as the target, how does the “log2 ratio” value read?
**A.** Its value is inactive: 0.397.

**Q.** How did the “log2 ratio” value turn out when NUP62 C506 (UniProt P37198) was run?
**A.** Its value is inactive: 0.292.

**Q.** How did the “log2 ratio” value turn out when FEN1 C311 (UniProt P39748) was run?
**A.** The value was inactive: 0.155.

**Q.** Which “log2 ratio” value does the source give for ACAA2 C179 (UniProt P42765) here?
**A.** Its value is inactive: 0.624.

**Q.** HSPA4 C376 (UniProt P34932) was tested. Which “log2 ratio” value did it give?
**A.** The value was inactive: -0.31.

**Q.** For RFC2 C7 (UniProt P35250), which “log2 ratio” value is on record?
**A.** Its value is inactive: 0.344.

**Q.** For TIA1 C33 (UniProt P31483), which “log2 ratio” value is on record?
**A.** The value was inactive: 0.0436.

**Q.** How did the “log2 ratio” value turn out when CA8 C266 (UniProt P35219) was run?
**A.** Its value is inactive: 0.035.

**Q.** For IARS C87 (UniProt P41252), which “log2 ratio” value is on record?
**A.** The value was inactive: 0.143.

**Q.** How did the “log2 ratio” value turn out when AKT2 C311 (UniProt P31751) was run?
**A.** The value was inactive: 0.471.

**Q.** For HSPA4 C417 (UniProt P34932), which “log2 ratio” value is on record?
**A.** The value was inactive: 0.208.

**Q.** How did the “log2 ratio” value turn out when HSPA4 C146 (UniProt P34932) was run?
**A.** Its value is inactive: 0.0402.

**Q.** With ALDH1B1 C179 (UniProt P30837) as the target, how does the “log2 ratio” value read?
**A.** The value was inactive: 0.211.

**Q.** MYH10 C382 (UniProt P35580) was tested. Which “log2 ratio” value did it give?
**A.** Its value is inactive: 0.27.

**Q.** With COIL C170 (UniProt P38432) as the target, how does the “log2 ratio” value read?
**A.** The value was inactive: 0.546.
